{
  "sequences": {"note": "By UniProt entry, the sequences of proteins in these tests, tags left out.", "UniProt P40763": "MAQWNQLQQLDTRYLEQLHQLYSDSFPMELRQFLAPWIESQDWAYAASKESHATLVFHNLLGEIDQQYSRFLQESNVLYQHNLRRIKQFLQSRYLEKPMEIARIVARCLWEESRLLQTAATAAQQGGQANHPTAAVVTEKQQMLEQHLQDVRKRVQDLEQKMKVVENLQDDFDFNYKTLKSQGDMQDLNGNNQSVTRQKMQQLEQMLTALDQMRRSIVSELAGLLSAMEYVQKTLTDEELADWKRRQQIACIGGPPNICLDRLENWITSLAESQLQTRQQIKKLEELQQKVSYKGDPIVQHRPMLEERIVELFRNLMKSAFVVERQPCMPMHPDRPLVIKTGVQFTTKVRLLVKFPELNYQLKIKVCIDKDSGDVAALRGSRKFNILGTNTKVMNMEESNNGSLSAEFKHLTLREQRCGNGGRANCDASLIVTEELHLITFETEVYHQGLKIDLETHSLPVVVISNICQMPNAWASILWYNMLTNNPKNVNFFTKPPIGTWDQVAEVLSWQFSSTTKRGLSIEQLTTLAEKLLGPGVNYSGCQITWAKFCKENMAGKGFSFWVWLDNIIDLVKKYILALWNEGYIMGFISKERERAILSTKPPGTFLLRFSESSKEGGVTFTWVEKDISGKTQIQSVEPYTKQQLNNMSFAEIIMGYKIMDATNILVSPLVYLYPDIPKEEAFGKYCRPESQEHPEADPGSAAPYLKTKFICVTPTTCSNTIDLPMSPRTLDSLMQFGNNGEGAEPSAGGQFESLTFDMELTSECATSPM"},
  "source": "paper PMC4936752",
  "target": "T1, mCherry-HA-IE1 (wild-type) fusion protein (human cytomegalovirus (hCMV), strain Towne) (UniProt P03169)",
  "T1 sequence": "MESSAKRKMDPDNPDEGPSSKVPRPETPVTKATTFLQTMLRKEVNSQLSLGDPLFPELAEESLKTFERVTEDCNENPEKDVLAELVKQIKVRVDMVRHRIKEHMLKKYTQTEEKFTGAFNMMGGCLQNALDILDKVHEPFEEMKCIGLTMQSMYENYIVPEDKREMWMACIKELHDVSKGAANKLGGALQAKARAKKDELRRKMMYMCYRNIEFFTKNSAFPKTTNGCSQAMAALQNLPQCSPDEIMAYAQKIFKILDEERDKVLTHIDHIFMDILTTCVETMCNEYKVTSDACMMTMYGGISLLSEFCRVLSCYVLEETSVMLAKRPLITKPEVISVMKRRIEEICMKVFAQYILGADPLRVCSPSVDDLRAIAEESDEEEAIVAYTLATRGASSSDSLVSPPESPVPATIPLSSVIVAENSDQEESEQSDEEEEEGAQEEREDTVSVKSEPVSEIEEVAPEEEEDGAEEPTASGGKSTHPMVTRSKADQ",
  "test": "co-IP; plasmid-transfected 293T cells, 48 h post transfection, no formaldehyde cross-linking; CoIP lysis buffer (50 mM Tris-HCl pH 8.0, 150 mM NaCl, 10% glycerol, 0.5% Triton X-100); anti-HA magnetic beads 2 h at 4°C; immunoblot for STAT3α and HA-tagged proteins",
  "note": "Results are given in words; binding and its absence hold for the method and conditions named. In cells and extracts the contact can be indirect. Some results given as binding are weak or reduced against the parent protein; the word gives no strength. Tags and fused reporters may be left off the sequences shown.",
  "data": [
    {"substance": "STAT3α, endogenous in 293T cells (from UniProt P40763 1-770)", "values": [
      {"measurement": "binding", "result": "binds"}
    ]}
  ]
}
